# ± gives the standard deviation of the averaged measurements. The list shows a part of the results, in another mix than the full data.
# Columns and labels:
# Experiment in all cases: NP40-soluble protein abundance relative to vehicle (solubility fold change) (ratio); higher = more soluble protein in presence of AMP-PNP
# [1] = molecular target: T1, ACAD9 (UniProt Q9H845)
# T1 sequence (whole entry): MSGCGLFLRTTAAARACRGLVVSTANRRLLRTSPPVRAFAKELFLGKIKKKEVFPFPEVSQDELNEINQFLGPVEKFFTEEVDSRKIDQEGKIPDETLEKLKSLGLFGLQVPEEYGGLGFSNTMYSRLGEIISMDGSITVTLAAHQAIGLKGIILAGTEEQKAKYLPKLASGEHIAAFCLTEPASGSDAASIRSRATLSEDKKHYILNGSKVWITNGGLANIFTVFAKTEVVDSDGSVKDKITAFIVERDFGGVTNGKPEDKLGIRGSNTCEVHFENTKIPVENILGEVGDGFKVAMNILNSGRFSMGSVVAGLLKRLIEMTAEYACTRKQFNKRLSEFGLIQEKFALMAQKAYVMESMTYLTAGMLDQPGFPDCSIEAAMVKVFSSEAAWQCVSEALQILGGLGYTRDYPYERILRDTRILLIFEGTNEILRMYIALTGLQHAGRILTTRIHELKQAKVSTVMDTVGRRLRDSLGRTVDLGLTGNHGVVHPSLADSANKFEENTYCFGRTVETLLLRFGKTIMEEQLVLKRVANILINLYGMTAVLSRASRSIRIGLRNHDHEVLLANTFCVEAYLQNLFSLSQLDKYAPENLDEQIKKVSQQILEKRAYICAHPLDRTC
# Procedure, shortened: (§1)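 Each value is a fold change relative to the detergent-processed vehicle, calculated per replicate from vsn-normalised intensities. Jurkat crude lysate received eight concentrations (0.1 to 10 mM) for 10 min at room temperature and 3 min at 37 °C, then was solubilised in 0.8% NP40 with benzonase (60 min, 4 °C). The ultracentrifuged supernatant was TMT-labelled and run by LC-MS/MS in three independent experiments.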
# [2] = molecular target: T2, CSTF2T (UniProt Q9H0L4)
# T2 sequence (whole entry): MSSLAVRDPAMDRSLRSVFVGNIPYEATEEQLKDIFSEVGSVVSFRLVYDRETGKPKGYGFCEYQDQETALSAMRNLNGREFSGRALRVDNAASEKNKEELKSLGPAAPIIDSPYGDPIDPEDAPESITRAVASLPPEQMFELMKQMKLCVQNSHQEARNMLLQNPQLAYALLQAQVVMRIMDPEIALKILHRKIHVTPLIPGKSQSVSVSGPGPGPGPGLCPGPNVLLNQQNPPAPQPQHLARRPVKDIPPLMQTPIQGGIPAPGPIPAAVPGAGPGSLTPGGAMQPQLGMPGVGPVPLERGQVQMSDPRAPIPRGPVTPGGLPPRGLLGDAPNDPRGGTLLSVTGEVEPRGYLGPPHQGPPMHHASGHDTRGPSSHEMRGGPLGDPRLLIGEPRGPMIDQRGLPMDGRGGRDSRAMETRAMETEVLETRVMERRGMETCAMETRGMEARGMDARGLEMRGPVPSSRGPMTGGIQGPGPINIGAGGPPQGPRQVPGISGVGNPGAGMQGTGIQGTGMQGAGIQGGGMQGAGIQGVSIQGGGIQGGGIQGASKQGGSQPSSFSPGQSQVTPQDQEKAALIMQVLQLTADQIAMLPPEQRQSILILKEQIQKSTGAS
# Procedure, shortened: as §1
# [3] = molecular target: T3, DCP1A (UniProt Q9NPI6)
# T3 sequence (whole entry): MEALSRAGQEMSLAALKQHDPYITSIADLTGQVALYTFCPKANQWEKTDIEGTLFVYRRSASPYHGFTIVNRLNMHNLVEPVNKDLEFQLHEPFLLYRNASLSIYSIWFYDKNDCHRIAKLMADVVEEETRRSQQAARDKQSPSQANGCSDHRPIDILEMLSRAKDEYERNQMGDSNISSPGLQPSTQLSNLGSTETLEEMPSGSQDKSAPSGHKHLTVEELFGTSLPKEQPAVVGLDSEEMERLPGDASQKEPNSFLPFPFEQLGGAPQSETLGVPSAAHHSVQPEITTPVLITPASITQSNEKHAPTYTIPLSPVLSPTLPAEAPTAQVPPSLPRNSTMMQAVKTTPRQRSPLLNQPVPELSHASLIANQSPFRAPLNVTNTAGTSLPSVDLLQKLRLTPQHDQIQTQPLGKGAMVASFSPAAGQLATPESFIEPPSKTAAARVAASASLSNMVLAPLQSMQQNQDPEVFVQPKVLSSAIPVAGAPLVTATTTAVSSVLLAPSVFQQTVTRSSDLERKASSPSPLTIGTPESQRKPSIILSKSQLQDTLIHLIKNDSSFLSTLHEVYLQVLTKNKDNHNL
# Procedure, shortened: as §1
# [4] = molecular target: T4, DNTTIP1 (UniProt Q9H147)
# T4 sequence (whole entry): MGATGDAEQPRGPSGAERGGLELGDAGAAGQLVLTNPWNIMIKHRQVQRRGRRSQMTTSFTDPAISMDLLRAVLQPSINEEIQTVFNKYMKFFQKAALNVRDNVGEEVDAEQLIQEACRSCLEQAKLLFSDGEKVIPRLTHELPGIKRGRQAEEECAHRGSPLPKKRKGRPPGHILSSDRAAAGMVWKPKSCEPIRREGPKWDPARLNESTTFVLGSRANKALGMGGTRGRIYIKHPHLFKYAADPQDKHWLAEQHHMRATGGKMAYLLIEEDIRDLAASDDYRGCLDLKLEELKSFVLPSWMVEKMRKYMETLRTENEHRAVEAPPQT
# Procedure, shortened: as §1
# [5] = molecular target: T5, PLEKHF2 (UniProt Q9H8W4)
# T5 sequence (whole entry): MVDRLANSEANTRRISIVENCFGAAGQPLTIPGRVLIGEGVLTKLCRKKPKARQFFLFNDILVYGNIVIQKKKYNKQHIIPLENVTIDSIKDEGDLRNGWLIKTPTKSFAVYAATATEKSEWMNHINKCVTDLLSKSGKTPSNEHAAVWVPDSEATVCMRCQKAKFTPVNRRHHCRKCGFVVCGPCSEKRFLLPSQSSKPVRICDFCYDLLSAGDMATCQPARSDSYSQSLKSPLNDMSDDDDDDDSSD
# Procedure, shortened: as §1
structure (smiles),measurement,setting,value
Nc1ncnc2c1ncn2[C@@H]1O[C@H](COP(=O)(O)OP(=O)(O)NP(=O)(O)O)[C@@H](O)[C@H]1O [adenylyl imidodiphosphate],NP40-soluble protein abundance,[1]; concentration: 1mM,0.96 ± 0.02
same,NP40-soluble protein abundance,[1]; concentration: 2mM,0.946 ± 0.027
same,NP40-soluble protein abundance,[1]; concentration: 4mM,0.924 ± 0.034
same,NP40-soluble protein abundance,[1]; concentration: 6mM,0.9939 ± 0.0021
same,NP40-soluble protein abundance,[1]; concentration: 8mM,0.965 ± 0.015
same,NP40-soluble protein abundance,[1]; concentration: 10mM,0.981 ± 0.055
same,NP40-soluble protein abundance,[2]; concentration: 1mM,1.01 ± 0.029
same,NP40-soluble protein abundance,[2]; concentration: 2mM,1.09 ± 0.085
same,NP40-soluble protein abundance,[2]; concentration: 4mM,1.04 ± 0.014
same,NP40-soluble protein abundance,[2]; concentration: 6mM,1.02 ± 0.036
same,NP40-soluble protein abundance,[2]; concentration: 8mM,1.01 ± 0.037
same,NP40-soluble protein abundance,[2]; concentration: 10mM,1 ± 0.023
same,NP40-soluble protein abundance,[3]; concentration: 1mM,1 ± 0.044
same,NP40-soluble protein abundance,[3]; concentration: 2mM,1.02 ± 0.011
same,NP40-soluble protein abundance,[3]; concentration: 4mM,1.02 ± 0.017
same,NP40-soluble protein abundance,[3]; concentration: 6mM,1.03 ± 0.037
same,NP40-soluble protein abundance,[3]; concentration: 8mM,0.998 ± 0.011
same,NP40-soluble protein abundance,[3]; concentration: 10mM,1.02 ± 0.023
same,NP40-soluble protein abundance,[4]; concentration: 1mM,1.03 ± 0.037
same,NP40-soluble protein abundance,[4]; concentration: 2mM,1.02 ± 0.042
same,NP40-soluble protein abundance,[4]; concentration: 4mM,1 ± 0.041
same,NP40-soluble protein abundance,[4]; concentration: 6mM,0.973 ± 0.017
same,NP40-soluble protein abundance,[4]; concentration: 8mM,0.958 ± 0.032
same,NP40-soluble protein abundance,[4]; concentration: 10mM,0.989 ± 0.035
same,NP40-soluble protein abundance,[5]; concentration: 1mM,0.981 ± 0.04
same,NP40-soluble protein abundance,[5]; concentration: 2mM,1.01 ± 0.06
same,NP40-soluble protein abundance,[5]; concentration: 4mM,1 ± 0.018
same,NP40-soluble protein abundance,[5]; concentration: 6mM,1 ± 0.075
same,NP40-soluble protein abundance,[5]; concentration: 8mM,1.01 ± 0.025
same,NP40-soluble protein abundance,[5]; concentration: 10mM,1.01 ± 0.029

# 2 entries from above in another layout.
structure (smiles) | measurement | setting | value
Nc1ncnc2c1ncn2[C@@H]1O[C@H](COP(=O)(O)OP(=O)(O)NP(=O)(O)O)[C@@H](O)[C@H]1O [adenylyl imidodiphosphate] | NP40-soluble protein abundance | [1]; concentration: 6mM | 0.9939 ± 0.0021
same | NP40-soluble protein abundance | [1]; concentration: 8mM | 0.965 ± 0.015

# Source: the supplement of paper PMC6411743
